# PubChem BioAssay AID256 (DTP/NCI, 2004)
# The list is a part of this screen's results and no random one: it gathers tests that were run many times, whatever their T/C, doses with no T/C, and many T/C values between a quarter and a half above the control. Other doses and runs of a compound stand elsewhere. T/C is the treated group as % of the vehicle group. Some doses have a count of surviving animals in place of a T/C: the source holds a T/C of zero for them, seemingly a mark for toxic or unscored doses. Some survivor counts are full or nearly so, which does not show that the dose was tolerated: the source hardly ever lists a survival T/C far under the control, and the zero likely stands for such cases as well. Survivors were counted at the toxicity check, usually on the fifth day, unless a day is given; later deaths do not show. Schedule codes are those of the source, read here as Q, the interval in days (D) or hours (H), X, the number of doses. Some entries hold several experiments; their values stand side by side, smallest first. For survival time, this PubChem deposit counts one and a half times the control or more as active, and values a quarter to a half above the control carry no call in these data; other NCI protocols may use other cut-offs.
# System: CD2F1 mice, L1210 leukemia ip, survival T/C
# Test: NCI In Vivo Anticancer Drug Screen. Data for tumor model L1210 Leukemia (intraperitoneal) in CD2F1 (CDF1) mice
# Conditions: higher T/C = longer survival
# In short: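 Ratio T/C, where T is the treated-group value and C the vehicle-dosed control value, from mice implanted with a transplantable tumor.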
# [1] = T/C endpoint: mean survival time, dose: 100.0 mg/kg/injection, schedule: Q04DX003 (ip), vehicle: saline with Tween-80
# [2] = T/C endpoint: mean survival time, dose: 200.0 mg/kg/injection, schedule: Q04DX003 (ip), vehicle: saline with Tween-80
# [3] = T/C endpoint: mean survival time, dose: 400.0 mg/kg/injection, schedule: Q04DX003 (ip), vehicle: saline with Tween-80
# [4] = T/C endpoint: mean survival time, dose: 200.0 mg/kg/injection, schedule: Q04DX003 (ip), vehicle: saline
# [5] = T/C endpoint: mean survival time, dose: 400.0 mg/kg/injection, schedule: Q04DX002 (ip), vehicle: saline with Tween-80
smiles,measurement,setting,value
O=C1C(Cl)=CC(=NS(=O)(=O)c2ccccc2)C=C1Cl,survivor count,[1],0 of 6
same,survivor count,[2],0 of 6
same,survivor count,[3],0 of 6
COc1cc[n+](CCc2c[nH]c3ccccc23)cc1,survivor count,[1],5 of 6
same,survivor count,[2],2 of 6
same,survivor count,[3],0 of 6
Cn1c(=O)[nH]c2c(-c3ccccc3)n[nH]c2c1=O,survivor count,"T/C endpoint: median survival time, dose: 50.0 mg/kg/injection, schedule: Q04DX003 (ip), vehicle: saline with Tween-80",3 of 3
O=S(c1cc(Cl)ccc1O)c1cc(Cl)ccc1O,survivor count,[3],1 of 6
Nc1nc(Cl)nc2c1ncn2C1CC(O)C(CO)O1 (stereo unspecified),T/C,"T/C endpoint: median survival time, dose: 3.12 mg/kg/injection, schedule: Q01DX009 (ip), vehicle: Klucel (hydroxypropylcellulose) (HPC)",128 % of control
same,T/C,"T/C endpoint: median survival time, dose: 6.25 mg/kg/injection, schedule: Q01DX009 (ip), vehicle: Klucel (hydroxypropylcellulose) (HPC)",144 % of control
same,survivor count,"T/C endpoint: median survival time, dose: 120.0 mg/kg/injection, schedule: Q03HX009 (ip), vehicle: saline",0 of 6 on day 4
CC(=O)OCCN(CCOC(C)=O)CCOC(C)=O,survivor count,"T/C endpoint: mean survival time, dose: 200.0 mg/kg/injection, schedule: Q04DX003 (ip), vehicle: Klucel (hydroxypropylcellulose) (HPC)",4 of 6
same,survivor count,"T/C endpoint: mean survival time, dose: 400.0 mg/kg/injection, schedule: Q04DX003 (ip), vehicle: Klucel (hydroxypropylcellulose) (HPC)",2 of 6
CC(O)CCC(=O)c1ccoc1 (stereo unspecified),survivor count,"T/C endpoint: median survival time, dose: 15.0 mg/kg/injection, schedule: Q03HX015 (ip), vehicle: saline + alcohol",1 of 6
same,survivor count,"T/C endpoint: median survival time, dose: 30.0 mg/kg/injection, schedule: Q03HX015 (ip), vehicle: saline + alcohol",0 of 6
same,survivor count,"T/C endpoint: median survival time, dose: 60.0 mg/kg/injection, schedule: Q03HX015 (ip), vehicle: saline + alcohol",0 of 6
CC[N+]1(C)C2CCC1CC(O)C2 (stereo unspecified),survivor count,"T/C endpoint: mean survival time, dose: 400.0 mg/kg/injection, schedule: Q04DX002 (ip), vehicle: saline",0 of 3
N.N.N.N.O=C(O)C1OCCOCCOC(C(=O)O)C(C(=O)O)OCCOCCOC1C(=O)O.[Pt+2].[Pt+2] (stereo unspecified),T/C,"T/C endpoint: median survival time, dose: 12.5 mg/kg/injection, schedule: Q04DX003 (ip), vehicle: saline with Tween-80",131 % of control
same,survivor count,"T/C endpoint: median survival time, dose: 40.0 mg/kg/injection, schedule: Q04DX003 (ip), vehicle: saline",6 of 6
N[C@@H](Cc1c[nH]c2ccccc12)C(=O)Nc1nncs1,T/C,"T/C endpoint: median survival time, dose: 133.0 mg/kg/injection, schedule: Q03HX027 (ip), vehicle: saline",134 and 142 % of control
same,T/C,"T/C endpoint: median survival time, dose: 221.67 mg/kg/injection, schedule: Q03HX027 (ip), vehicle: saline",146 % of control
same,survivor count,"T/C endpoint: median survival time, dose: 370.0 mg/kg/injection, schedule: Q03HX027 (ip), vehicle: saline",5 of 6
same,survivor count,"T/C endpoint: median survival time, dose: 800.0 mg/kg/injection, schedule: Q01DX009 (ip), vehicle: saline",3 of 6
CC1(C)COCN1COCCOCN1COCC1(C)C,survivor count,"T/C endpoint: mean survival time, dose: 200.0 mg/kg/injection, schedule: Q01DX009 (ip), vehicle: saline",2 of 10 and 3 of 6
O=[N+]([O-])c1ccc2c(c1)C(=Nc1ccc3ccccc3c1)c1ccccc1-2,survivor count,[3],5 of 6
NNC(=O)C1CCN1C(c1ccccc1)c1ccccc1 (stereo unspecified),survivor count,"T/C endpoint: mean survival time, dose: 200.0 mg/kg/injection, schedule: Q01DX001 (ip), vehicle: saline with Tween-80",0 of 3
same,survivor count,"T/C endpoint: mean survival time, dose: 400.0 mg/kg/injection, schedule: Q01DX001 (ip), vehicle: saline with Tween-80",0 of 3
CCN(CC)CCN1C(=O)c2cccc3cccc(c23)C1=O,survivor count,[4],0 of 6
COc1ccc(OC)c(N=C2C(=O)Nc3ccc(Br)cc32)c1,survivor count,[5],3 of 3
O=[N+]([O-])c1ccc(C[n+]2ccccc2)cc1,survivor count,"T/C endpoint: mean survival time, dose: 100.0 mg/kg/injection, schedule: Q04DX003 (ip), vehicle: saline",0 of 6
same,survivor count,[4],2 of 6
same,survivor count,"T/C endpoint: mean survival time, dose: 400.0 mg/kg/injection, schedule: Q04DX003 (ip), vehicle: saline",0 of 6
O=C(OCC(OC(=O)c1ccccc1)C(OC(=O)c1ccccc1)C(O)C(O)CO)c1ccccc1 (stereo unspecified) (tested in a mixture with another compound),survivor count,[5],3 of 3
O=c1c2ccccc2on1-c1ncnc2nc[nH]c12,survivor count,"T/C endpoint: mean survival time, dose: 200.0 mg/kg/injection, schedule: Q01DX005 (ip), vehicle: other",3 of 5
CN(C)C(=O)/N=N/C(=O)N(C)C,survivor count,"T/C endpoint: mean survival time, dose: 200.0 mg/kg/injection, schedule: Q01DX001 (ip), vehicle: saline",2 of 6
same,survivor count,"T/C endpoint: mean survival time, dose: 400.0 mg/kg/injection, schedule: Q01DX001 (ip), vehicle: saline",0 of 6
